## Screening data

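Luminescence from an EWS-FLI1 target-promoter (NR0B1) reporter, set against a CMV-promoter reporter, two days after silencing single genes in TC32 Ewing sarcoma cells.
Each siRNA was applied at 20 nM.
A z-score of the log NR0B1-over-CMV signal, less the median of siRNAs with the same seed; more negative means a stronger specific loss of the NR0B1 reporter.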

The strongest results of the screen are mostly left out here.
Sequences are the guide (antisense) strand, without overhang.

Sequence,target gene,seed-corrected z-score
UUUACUACCACCGAUUGCC,PAX6,-0.7076
UAUAGCAUCAUGGACCGUC,SLC26A4,0.1735
AGAGUGAUGACUUCUCAUU,ISCA1P1,0.2521
GUACAUGAUGGUCACGUCC,IRF7,0.2977
UUUUGUUAUCGCGAGACGC,HIST1H2AA,-0.1742
AAGUGGACCAUGUCGCUUC,PCED1A,-0.3002
UUCCAAUCAAUCUUAGUGC,CAPZA2,-0.1831
UGUCGAAUAAGGCCUGAUC,ZNF345,-0.6336
UUUCAUUUUUGGGCAAUUC,MRPL57,0.5891
AGACUUAAAGUUUUCAUCC,ROR1,0.002127
UUUGCGACUAAGAUGUUGG,SYCP2,0.05482
UUUUGAAACGACUGAAACG,POLR2D,-1.269
AAACUUCCAUGAGAAAUCC,CUTC,-0.5202
AUAGGCUUUGGUGCAGCCC,KLF14,-0.8197
AUUGUUUGAACGAGUAUCC,RBBP4,1.074
UAAAUAGGUCUUCUCGUCG,CAB39,-0.8529
UUUUGAUGAAUAUGCUUGC,DPRX,-0.2577
AUAGAGAUAUUCACUAUAC,CGRRF1,0.2263
UCGAUUUCCUGCUUGAGCC,DDIT3,1.259
UCACGGGUCCAGUAGGUUU,CRABP1,-0.5083
UAUUAUGUCAAACCCUAGG,OR52A5,-0.5578
UCGUAGACAAAGAUGUAGG,RHBDD2,0.261
UACAAGUCUUCUAAUACGC,LRRC17,-0.4119
UUCGGUUUUUAGGUCAUAC,MTRR,-0.1322
UUCUUGCCGGCACUGUUCC,CYP4F11,-0.4921
UGUCCUCUAACGACCCAGG,MMP25,-0.5962
AAUGAUAUCAUUGCCGCUG,CTNNA2,1.171
ACAAUUACAAGGAAGAUGC,C18orf32,-0.7423
UAAUGUCAAACACGUACCU,GDF5,-0.5397
UAAUGGUCCGCCGAAGUCU,IER3,0.328
UCUUGUGGAACAGCUCCGG,KCNAB2,-0.2787
UCCUGUUCAACUGAUGAUG,SPARCL1,-0.3319
UCAUUAACAAUCCCGAUAC,RNF111,0.4729
UCAGUGCCCACUUGUCCUC,RHBDD3,0.8729
UCAGUUUUCGCUUCCAUCU,NFATC1,-0.5075
UAUGGGUUUGCGGCUAAAG,ZNF772,-1.217
UGAGAUAUAGGGAGGAUAG,OPCML,-0.6487
UUUAUGCCUGCUAAUGUCG,MCEMP1,-0.08642
UUCUCGUCCAGUGUAUGCA,PSG5,-0.1179
UACACGUCAAAGGUGAAUC,CIDEB,-0.6767
UGCAUAUCCAUUGCUAAGC,DERL1,-1.346
UCAUCUGUCGGAUAAUUUC,NT5C3B,-0.3392
AAAUGAUAAAAAUCCAAGG,PTGDR,-0.1492
UUGCAGUUCAUCCAUCACC,DSN1,-0.3398
UCUAUGUCCAUGAAGUUCU,CNR1,-0.4102
UUACGUACUGGUUGAGUCU,LYN,0.3043
UUUGUUAUUCUCUCGGUAC,SYP,1.502
AAUCCAACAAGCAUCUUCU,LBHD1,-0.5663
ACAAUGGUCAGUGAGAUGG,ALOX12B,0.3517
UGAGGAAUAAUUCACAGAG,PRSS44,0.1997
UUCCCAUUCGGUCUUUGCC,CCDC154,-0.3265
UAUAUGUCAGGCUAGAGCG,ADAMTS3,-0.7769
UGAGUUGAAAACUUAUGUC,MS4A4E,0.01519
AUCCGAACCAUUCAACACC,C2CD2,0.3502
AAAUGAAGGACAUUCACUG,TMEM105,1.649
UACAUUUCAGGUAUUCAUC,ART3,-0.03164
AUCGCUUUAAUUCAUCUUG,CAND1,-1.223
UAUGUAUCCCUCAUGAAUU,C7orf66,-0.07714
UGUAGUUAUACACUUUCAC,RPL27,-1.006
AAAUCGCUUAAUCUCAUGC,BICD1,0.1132
UUCGUGCUCAUACAUAAGC,KIF13B,0.06246
UCCUUGUAAAACAAUCUGC,ZNF143,-0.2029
AUUGUGAACAGGAGCAAGG,SPRY1,-0.2047
UCUAGGGUCAAAACUCGGC,SMC1B,0.08386
AAAUAGAGUACCUAUAAUG,TAS2R16,-0.6122
ACAGAUGUCAGUAAAGGAG,OR7G1,0.5346
UUCAUAUCAUCCUUGUUGG,MTCH1,-0.5329
UUACAUUUGCAAAGUUUCC,ZNF137P,0.8727
AAAUCUCGAAUUUUGAAGC,UNC119B,1.585
UUCGAAGCUUGGAUCUUCC,SLTM,0.1313
UUGUCUAUCUCGAUCUUUC,TWF1,-0.2152

Source: PubChem BioAssay AID1159506 (NCATS, 2015).